Here are results for 6 molecules from patent US20140308283A1.

For assay [1], the target named is CAPRIN-1 protein expressed on the cell membrane surface of human cancer cell lines (human) (UniProt Q14444). The assay can be described thus: flow cytometry, hybridoma supernatant on MDA-MB-231V cells.
Assay [2] has as its target T1, polypeptide of SEQ ID NO: 273 (human).
T1 sequence (peptide): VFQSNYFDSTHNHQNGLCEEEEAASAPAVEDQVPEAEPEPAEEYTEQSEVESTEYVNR
Nature of the assay: trypsin digestion of antibody-bound reduced alkylated CAPRIN-1, protein A capture, LC-MS.

Assay [3] has as its target T2, human CAPRIN-1 recombinant protein (human) (UniProt Q14444).
T2 sequence: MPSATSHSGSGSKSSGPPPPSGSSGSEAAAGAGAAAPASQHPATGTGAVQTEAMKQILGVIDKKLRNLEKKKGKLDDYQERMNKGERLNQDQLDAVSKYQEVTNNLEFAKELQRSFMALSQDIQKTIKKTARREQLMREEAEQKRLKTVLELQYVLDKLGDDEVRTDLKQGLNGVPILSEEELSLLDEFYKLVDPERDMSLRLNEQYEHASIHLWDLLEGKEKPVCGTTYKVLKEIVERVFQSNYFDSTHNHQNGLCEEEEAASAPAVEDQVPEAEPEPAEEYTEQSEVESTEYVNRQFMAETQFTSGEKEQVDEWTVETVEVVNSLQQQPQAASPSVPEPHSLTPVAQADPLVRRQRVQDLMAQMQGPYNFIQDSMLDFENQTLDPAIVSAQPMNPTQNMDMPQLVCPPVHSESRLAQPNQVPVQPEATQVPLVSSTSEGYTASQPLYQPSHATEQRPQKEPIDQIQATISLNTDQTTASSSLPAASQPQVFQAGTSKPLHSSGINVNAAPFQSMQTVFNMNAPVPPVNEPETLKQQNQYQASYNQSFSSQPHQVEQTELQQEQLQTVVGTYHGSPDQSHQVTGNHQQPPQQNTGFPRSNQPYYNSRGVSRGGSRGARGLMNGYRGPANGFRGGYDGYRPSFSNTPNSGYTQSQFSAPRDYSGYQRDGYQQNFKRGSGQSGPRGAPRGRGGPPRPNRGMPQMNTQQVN
The assay can be described thus: ELISA, hybridoma supernatant on plate-coated recombinant CAPRIN-1.

These are yes or no findings as the source states them, for the method shown. For some assays here: Binding seen in cells or lysates may run through a third protein. Some entries that bind do so weakly or less than the wild type.

B1: chicken monoclonal antibody #1 (antibody, V domains shown)
VH: AVTLDESGGGLQMSRGGLSLVCKASGFDFSSYQMNWIRQAPGKGLEFVAAINKFGNSTGHGAAVKGRVTISRDNGQSTVRLQLNNLRAEDTAIYFCTKHAYGYCGSGTWCAAGEIDAWGHGTEVIVSS
VL: QAASTQPSSVSANPGETVEITCSGGGSYSYGWFQQKSPGSAPVTVIYYNNKRPSDIPSRFSGSKSGSTGTLTITGVQADDEAVYYCGSGDSTDTAVFGAGTTLTVLG
On to B1, for which, in assay [1], the binding entry is recorded as “binds”.

B2: chicken monoclonal antibody #3 (antibody, V domains shown)
VH: AVTLDESGGGLQTPGGALSLVCKASGFTFSGYDMLWVRQAPGKGLEWVAGIGSTGGGTDYGAAVKGRATISRDNGQSTVRLQLNNLRAEDTATYYCAKVAGGCNSGYCRDSPGSIDAWGHGTEVIVS
VL: AVTQQPASVSANPGETVKITCSGGGSRNYYGWYQQKSPGSVPVTVIYYDDQRPSNIPSRFSGALSGSTSTLTITGVQADDEAVYFCGSADSNTYEGSFGAGTTLTVL
As for B2, the binding entry in assay [1] was “binds”.

B3: chicken monoclonal antibody #2 (antibody, V domains shown)
VH: AVTLDESGGGLQTPGGGLSLVCKASGFTFSSFDMGWVRQAPGKGLEFVAQINDAGSRTWYATAVKGRATISRDNGQTTVRLQLNNLRAEDTGTYYCTRGSGYVGAGAIDAWGHGTEVIVS
VL: AALTQPSSVSANPGETVKITCSGGSGYYGWYQQQKSPGSAPVTVIYQNDKRPSDIPSRFSGSGSGSTNTLTITGVQAEDEAVYFCGRYDSTDSGIFGAGTTLTVL
Take B3: the binding entry in assay [1] is listed as “binds”.

B4: mouse monoclonal antibody #5 (antibody, V domains shown)
VH: DAELVKPGASVKISCKASGYTFTDHSIHWVQQKPEQGLEWIGYISPGNGNIKYNEKFKGKATLTADKSSSTAYMQLNSLTSEDSAVYFCKRSLGRGGPYYFDYWGQGTTVTVSS
VL: DIVLTQAAPSLPVTPGESVSISCRSSKSLLHSNGNTYLYWFLQRPGQSPQLLIYRMSNLASGVPDRFSGSGSGTAFTLRISRVEAEDVGVYYCMQHREYPVTFGSGPN
Turning to B4, in assay [1], the binding entry is recorded as “binds”.

B5: mouse monoclonal antibody #4 (antibody, V domains shown)
VH: GAELVRSGASVKMSCKASGYSFTDYNMYWVKQTPGQGLEWIGYIYPGNGGTNYNQKFKGKATLTADTSSSTAYMQISSLTSEDSAVYFCARDYDDGGYAMDYWGQGTTVTVSS
VL: DIQMTQSPASLSASVGETVTITCRASGNIHNYLTWYQQKQGKSPQLLVYNAKTLADGVPSRFSGSGSGTQYSLKINRLQPEDFGSYYCQHFWNIPWTFGGGTKLNSR
On to B5, for which, in assay [1], the binding result is “binds”.

B6: mouse monoclonal antibody #12 (antibody, V domains shown)
VH: EVQLHQFGAELVKPGASVKISCKASGYTFTDYNMDWVKQSHGKSLEWIGDINPNYDSTSYNQKFKGKATLTVDKSSSTAYMELRSLTSEDTAVYYCARSRSYDYEGFAYWGQGTLVTVSA
VL: DIQMTQSPASLSASVGETVTITCRASGNIHNYLAWYQQKQGKSPQLLVYNAKTLADGVPSRFSGSGSGTQYSLKINSLQPEDFGSYYCQHFWSTLTFGAGTKLELKR
As to B6, the binding result in assay [1], in assay [2] and in assay [3] was “binds” throughout.
